Assay results published in patent US8735588B2, “Nematocidal sulfonamides” (E I Du Pont De Nemours and Company, priority 2009, dated 2014).
Some of these results come from one statement about several compounds together. For at least one compound, name, drawing or mass did not settle the structure.

Tested on: southern root-knot nematode (Meloidogyne incognita)
Assay: Test A: control of southern root-knot nematode by soil application, cucumber seedlings, root gall formation
Assay type: in vivo
Settings: about 250 J2 larvae, 7 days at 27° C., no significant phytotoxicity
[1] = 50 ppm active ingredient applied to soil
[2] = 250 ppm active ingredient applied to soil

| SMILES | reduction in root galling, compared to solvent-treated controls (good levels of plant protection) [1] [%] | reduction in root galling, compared to solvent-treated controls (good levels of plant protection) [2] [%] |
| --- | --- | --- |
| COc1ccc(C)cc1S(=O)(=O)NC(=O)c1cn2cc(C(F)(F)F)cc(Cl)c2n1 [Compound 2] | ≥ 50 |  |
| O=C(NS(=O)(=O)c1cc(F)ccc1C(F)F)c1cn2cc(C(F)(F)F)cc(Cl)c2n1 [Compound 4] | ≥ 50 | ≥ 50 |
| COc1ccc(C(F)(F)F)cc1S(=O)(=O)NC(=O)c1cn2cc(C(F)(F)F)cc(Cl)c2n1 [Compound 5] |  | ≥ 50 |
| COc1ccc(C(F)F)c(S(=O)(=O)NC(=O)c2cn3cc(C(F)(F)F)cc(Cl)c3n2)c1 [Compound 6] |  | ≥ 50 |
| O=C(NS(=O)(=O)c1cc(Cl)ccc1C(F)F)c1cn2cc(C(F)(F)F)cc(Cl)c2n1 [Compound 9] | ≥ 50 | ≥ 50 |
| N#Cc1ccc(Cl)c(S(=O)(=O)NC(=O)c2cn3cc(C(F)(F)F)cc(Cl)c3n2)c1 [Compound 10] | ≥ 50 | ≥ 50 |
| Cc1ccc(Br)cc1S(=O)(=O)NC(=O)c1cn2cc(C(F)(F)F)cc(Cl)c2n1 [Compound 11] | ≥ 50 | ≥ 50 |
| COC(=O)c1ccc(C)c(S(=O)(=O)NC(=O)c2cn3cc(C(F)(F)F)cc(Cl)c3n2)c1 [Compound 12] |  | ≥ 50 |
| Cc1ccc(C(C)C)cc1S(=O)(=O)NC(=O)c1cn2cc(C(F)(F)F)cc(Cl)c2n1 [Compound 13] | ≥ 50 | ≥ 50 |
| O=C(NS(=O)(=O)c1cc(Cl)ccc1[N+](=O)[O-])c1cn2cc(C(F)(F)F)cc(Cl)c2n1 [Compound 17] |  | ≥ 50 |
| Cc1cc(S(=O)(=O)NC(=O)c2cn3cc(C(F)(F)F)cc(Cl)c3n2)c(C)cc1C#N [Compound 19, 8-chloro-N-[(4-cyano-2,5-dimethylphenyl)sulfonyl]-6-(trifluoromethyl)imidazo[1,2-a]pyridine-2-carboxamide] | ≥ 50 | ≥ 50 |
| COC(=O)c1cc(S(=O)(=O)NC(=O)c2cn3cc(C(F)(F)F)cc(Cl)c3n2)c(Cl)cc1Cl [Compound 24] |  | ≥ 50 |
| N#Cc1ccc(S(=O)(=O)NC(=O)c2cn3cc(C(F)(F)F)cc(Cl)c3n2)c(Cl)c1 [Compound 25] |  | ≥ 50 |
| COC(=O)c1ccc(Cl)c(S(=O)(=O)NC(=O)c2cn3cc(C(F)(F)F)cc(Cl)c3n2)c1 [Compound 28] |  | ≥ 50 |
| O=C(NS(=O)(=O)c1c(F)cc(F)cc1F)c1cn2cc(C(F)(F)F)cc(Cl)c2n1 [Compound 29] |  | ≥ 50 |
| Cc1c(Cl)cccc1S(=O)(=O)NC(=O)c1cn2cc(C(F)(F)F)cc(Cl)c2n1 [Compound 32] |  | ≥ 50 |
| CC(=O)Nc1ccccc1S(=O)(=O)NC(=O)c1cn2cc(C(F)(F)F)cc(Cl)c2n1 [Compound 34] |  | ≥ 50 |
| Cc1cc(OC(F)F)ccc1S(=O)(=O)NC(=O)c1cn2cc(C(F)(F)F)cc(Cl)c2n1 [Compound 38] |  | ≥ 50 |
| N#Cc1c(Cl)cccc1S(=O)(=O)NC(=O)c1cn2cc(C(F)(F)F)cc(Cl)c2n1 [Compound 57] |  | ≥ 50 |
| Cc1ccc([N+](=O)[O-])c(S(=O)(=O)NC(=O)c2cn3cc(C(F)(F)F)cc(Cl)c3n2)c1 [Compound 59] | ≥ 50 | ≥ 50 |
| Cc1cc(S(=O)(=O)NC(=O)c2cn3cc(C(F)(F)F)cc(Cl)c3n2)c(C)cc1Cl [Compound 63] | ≥ 50 | ≥ 50 |
| Cc1cc(S(=O)(=O)NC(=O)c2cn3cc(C(F)(F)F)cc(Cl)c3n2)c(C(C)C)cc1C#N [Compound 65] |  | ≥ 50 |
| Cc1cc(S(=O)(=O)NC(=O)c2cn3cc(C(F)(F)F)cc(Cl)c3n2)c(C)cc1Br [Compound 66] | ≥ 50 | ≥ 50 |
| Cc1cc(S(=O)(=O)NC(=O)c2cn3cc(C(F)(F)F)cc(Cl)c3n2)c(C)cc1C(C)C [Compound 67] | ≥ 50 | ≥ 50 |

| SMILES | reduction in root galling, compared to solvent-treated controls (good levels of plant protection) [1] [%] | reduction in root galling, compared to solvent-treated controls (good levels of plant protection) [2] [%] |
| --- | --- | --- |
| Cc1cc(S(=O)(=O)NC(=O)c2cn3cc(C(F)(F)F)cc(Cl)c3n2)ccc1C#N [Compound 69] | ≥ 50 | ≥ 50 |
| CC(C)c1cc(S(=O)(=O)NC(=O)c2cn3cc(C(F)(F)F)cc(Cl)c3n2)c(C(C)C)cc1C#N [Compound 70] |  | ≥ 50 |
| CCc1cc(S(=O)(=O)NC(=O)c2cn3cc(C(F)(F)F)cc(Cl)c3n2)c(CC)cc1C#N [Compound 71] | ≥ 50 | ≥ 50 |
| CCCc1cc(S(=O)(=O)NC(=O)c2cn3cc(C(F)(F)F)cc(Cl)c3n2)c(CCC)cc1C#N [Compound 72] |  | ≥ 50 |
| CCc1cc(S(=O)(=O)NC(=O)c2cn3cc(C(F)(F)F)cc(Cl)c3n2)c(CC)cc1F [Compound 73] | ≥ 50 | ≥ 50 |
| COc1cc(C(C)C)c(S(=O)(=O)NC(=O)c2cn3cc(C(F)(F)F)cc(Cl)c3n2)cc1C(C)C [Compound 75] |  | ≥ 50 |
| Cc1cc([N+](=O)[O-])cc(S(=O)(=O)NC(=O)c2cn3cc(C(F)(F)F)cc(Cl)c3n2)c1C [Compound 83] |  | ≥ 50 |
| Cc1ccccc1S(=O)(=O)NC(=O)c1cn2cc(C(F)(F)F)cc(Cl)c2n1 [Compound 86] | ≥ 50 |  |
| COc1cc(F)c(S(=O)(=O)NC(=O)c2cn3cc(C(F)(F)F)cc(Cl)c3n2)cc1OC [Compound 89] |  | ≥ 50 |
| COc1cc(C)c(S(=O)(=O)NC(=O)c2cn3cc(C(F)(F)F)cc(Cl)c3n2)cc1OC [Compound 90] | ≥ 50 | ≥ 50 |
| Cc1cc(C)c(S(=O)(=O)NC(=O)c2cn3cc(C(F)(F)F)cc(Cl)c3n2)cc1C [Compound 93] |  | ≥ 50 |
| O=C(NS(=O)(=O)c1ccccc1)c1cn2cc(C(F)(F)F)cc(Cl)c2n1 [Compound 94] | ≥ 50 |  |
| O=C(NS(=O)(=O)c1cc(Cl)ccc1Cl)c1cn2cc(C(F)(F)F)cc(Cl)c2n1 [Compound 101] | ≥ 50 | ≥ 50 |
| Cc1ccc(F)cc1S(=O)(=O)NC(=O)c1cn2cc(C(F)(F)F)cc(Cl)c2n1 [Compound 103] | ≥ 50 |  |
| O=C(NS(=O)(=O)c1ccccc1Br)c1cn2cc(C(F)(F)F)cc(Cl)c2n1 [Compound 105] | ≥ 50 |  |
| O=C(NS(=O)(=O)c1ccc(Cl)c(Cl)c1)c1cn2cc(C(F)(F)F)cc(Cl)c2n1 [Compound 106] |  | ≥ 50 |
| O=C(NS(=O)(=O)c1ccc(Cl)cc1Cl)c1cn2cc(C(F)(F)F)cc(Cl)c2n1 [Compound 107] | ≥ 50 | ≥ 50 |
| O=C(NS(=O)(=O)c1ccccc1F)c1cn2cc(C(F)(F)F)cc(Cl)c2n1 [Compound 108] | ≥ 50 |  |
| Cc1ccccc1S(=O)(=O)NC(=O)c1cn2cc(C(F)(F)F)cc(Cl)c2n1 [Compound 109] |  | ≥ 50 |
| Cc1ccc(Cl)cc1S(=O)(=O)NC(=O)c1cn2cc(C(F)(F)F)cc(Cl)c2n1 [Compound 111] | ≥ 50 | ≥ 50 |
| O=C(NS(=O)(=O)c1cc([N+](=O)[O-])ccc1Cl)c1cn2cc(C(F)(F)F)cc(Cl)c2n1 [Compound 112] |  | ≥ 50 |
| O=C(NS(=O)(=O)c1cc(Cl)c(Cl)cc1Cl)c1cn2cc(C(F)(F)F)cc(Cl)c2n1 [Compound 113] | ≥ 50 | ≥ 50 |
| O=C(NS(=O)(=O)c1cccc(Cl)c1Cl)c1cn2cc(C(F)(F)F)cc(Cl)c2n1 [Compound 114] | ≥ 50 | ≥ 50 |
| Cc1ccc([N+](=O)[O-])cc1S(=O)(=O)NC(=O)c1cn2cc(C(F)(F)F)cc(Cl)c2n1 [Compound 116] | ≥ 50 | ≥ 50 |
